These are yes or no findings as the source states them, for the method shown. In cells and extracts the contact can be indirect. These calls come from enrichment with a bait or labelling near it, and not all partners need be listed.
Target: Hsp90ab1 (human (endogenous in BGC823 and MKN45)) (UniProt P08238)
Experiment: affinity purification with mass spectrometry; anti-Hsp90ab1 or IgG antibody incubated with BGC823 cell extracts, protein A/G beads; SDS-PAGE, silver staining, specific bands excised, LC-MS/MS

Amino acid sequences for entries named in this document (tags omitted). Residues count along the entry.
UniProt P08238: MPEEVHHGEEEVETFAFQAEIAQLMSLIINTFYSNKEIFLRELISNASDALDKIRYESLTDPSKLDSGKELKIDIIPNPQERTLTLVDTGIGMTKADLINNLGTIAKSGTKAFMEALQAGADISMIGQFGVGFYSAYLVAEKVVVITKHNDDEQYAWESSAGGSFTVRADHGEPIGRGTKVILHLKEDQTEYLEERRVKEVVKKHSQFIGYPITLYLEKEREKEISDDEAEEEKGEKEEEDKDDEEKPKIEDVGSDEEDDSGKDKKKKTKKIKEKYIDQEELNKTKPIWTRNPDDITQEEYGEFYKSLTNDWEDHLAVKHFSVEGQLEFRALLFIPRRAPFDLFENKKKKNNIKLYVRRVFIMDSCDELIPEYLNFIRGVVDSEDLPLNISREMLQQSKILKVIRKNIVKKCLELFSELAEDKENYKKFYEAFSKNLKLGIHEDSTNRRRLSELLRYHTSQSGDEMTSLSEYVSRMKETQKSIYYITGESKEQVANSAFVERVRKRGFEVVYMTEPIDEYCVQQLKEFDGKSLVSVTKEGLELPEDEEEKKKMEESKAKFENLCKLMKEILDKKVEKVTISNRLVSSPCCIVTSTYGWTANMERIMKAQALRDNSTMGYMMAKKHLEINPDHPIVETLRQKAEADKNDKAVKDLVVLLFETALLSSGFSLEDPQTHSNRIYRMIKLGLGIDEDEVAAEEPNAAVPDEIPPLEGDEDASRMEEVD
UniProt O75197, residues 32-1615: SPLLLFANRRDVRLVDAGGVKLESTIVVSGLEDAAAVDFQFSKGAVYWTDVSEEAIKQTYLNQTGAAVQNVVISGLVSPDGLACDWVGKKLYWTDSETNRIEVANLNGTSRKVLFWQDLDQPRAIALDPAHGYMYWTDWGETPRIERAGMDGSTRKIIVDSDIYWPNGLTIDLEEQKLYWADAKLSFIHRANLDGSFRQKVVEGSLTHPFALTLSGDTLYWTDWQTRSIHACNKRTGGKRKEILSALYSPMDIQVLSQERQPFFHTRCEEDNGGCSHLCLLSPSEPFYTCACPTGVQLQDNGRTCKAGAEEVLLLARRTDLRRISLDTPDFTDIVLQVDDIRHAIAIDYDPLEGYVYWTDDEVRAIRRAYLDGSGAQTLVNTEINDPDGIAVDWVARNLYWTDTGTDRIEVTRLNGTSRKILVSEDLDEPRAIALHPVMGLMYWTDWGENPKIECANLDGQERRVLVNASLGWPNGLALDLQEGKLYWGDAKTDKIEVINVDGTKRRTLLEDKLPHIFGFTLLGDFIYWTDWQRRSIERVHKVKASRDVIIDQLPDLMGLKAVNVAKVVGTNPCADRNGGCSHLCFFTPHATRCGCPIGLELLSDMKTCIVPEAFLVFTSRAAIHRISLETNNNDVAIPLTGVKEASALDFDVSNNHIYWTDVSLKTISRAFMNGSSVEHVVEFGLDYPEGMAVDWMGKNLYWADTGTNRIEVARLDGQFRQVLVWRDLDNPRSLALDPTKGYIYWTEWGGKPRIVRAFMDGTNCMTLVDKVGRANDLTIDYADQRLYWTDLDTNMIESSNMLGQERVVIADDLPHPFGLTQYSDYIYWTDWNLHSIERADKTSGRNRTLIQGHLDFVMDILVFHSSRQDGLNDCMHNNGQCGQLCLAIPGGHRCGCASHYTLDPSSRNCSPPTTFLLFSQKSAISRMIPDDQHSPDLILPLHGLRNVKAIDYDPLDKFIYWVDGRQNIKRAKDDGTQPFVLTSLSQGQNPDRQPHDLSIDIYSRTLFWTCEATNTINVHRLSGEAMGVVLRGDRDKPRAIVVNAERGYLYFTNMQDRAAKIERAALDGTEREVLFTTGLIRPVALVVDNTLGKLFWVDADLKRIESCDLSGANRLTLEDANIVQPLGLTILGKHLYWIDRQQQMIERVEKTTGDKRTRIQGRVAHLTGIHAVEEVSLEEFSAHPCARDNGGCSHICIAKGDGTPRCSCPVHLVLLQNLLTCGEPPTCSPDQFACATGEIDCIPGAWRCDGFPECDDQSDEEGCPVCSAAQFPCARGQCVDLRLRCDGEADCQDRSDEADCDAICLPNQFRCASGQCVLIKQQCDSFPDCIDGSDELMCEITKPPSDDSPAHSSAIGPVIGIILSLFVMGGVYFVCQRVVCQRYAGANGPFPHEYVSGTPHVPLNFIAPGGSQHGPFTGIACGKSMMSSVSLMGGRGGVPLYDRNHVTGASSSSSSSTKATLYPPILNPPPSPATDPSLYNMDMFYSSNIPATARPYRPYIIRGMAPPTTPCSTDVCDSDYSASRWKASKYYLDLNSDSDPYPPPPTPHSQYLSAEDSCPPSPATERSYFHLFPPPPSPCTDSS

low-density lipoprotein receptor-related protein 5 (from UniProt O75197 32-1615)
binding: binds
